Data taken from ChEMBL document CHEMBL3988442, “University of Dundee, Small-Polar-MMV Screening Library” (2021).

Values are the deposited “Percent Effect”, in %.
The record does not define 0% and 100%; most values in the screen are far below 50% and negative numbers occur (in some assays of this library far below -100).
This is an unselected part of the compounds tested.

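Whole-parasite assay of Trypanosoma brucei over 72 hours; the read-out is not stated. Compounds at 30 µM. The record gives no direction; compounds that gave an IC50 in retests scored well above the rest, so higher reads as stronger inhibition. Values scatter widely below zero; nearly all retest evidence comes from the higher of the two concentrations used. About 64,000 compounds were tested under these conditions; 1.5% (about 940) showed 50% or more at least once.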

{"compound": "O=C(CN1CCN(c2ccc3nncn3n2)CC1)NC1CCCC1", "Percent Effect": 17.43}
{"compound": "Cc1nn(C(C)C)c(C)c1NC(=O)c1cccnc1", "Percent Effect": -43.49}
{"compound": "CC(C)C(C(=O)O)c1cccc(Cl)c1", "stereo": "stereo not given", "Percent Effect": -7.918}
{"compound": "Cc1occc1C(=O)NCC(=O)N(C)CCCOc1ccccc1", "Percent Effect": -44.45}
{"compound": "CC1CN(C)CCN1C(=O)c1ccn(-c2cccc(F)c2)n1", "stereo": "stereo not given", "Percent Effect": -9.757}
{"compound": "CC(C)(C)C(=O)N1CCC(n2cc(C3(O)CCCC3)nn2)CC1", "Percent Effect": -12.02}
{"compound": "CN(Cc1ccc2nonc2c1)C(=O)c1ccc(C2CCCO2)s1", "stereo": "stereo not given", "Percent Effect": -11.45}
{"compound": "CS(=O)(=O)c1ccc(OCCNCc2cccc(O)c2)cc1", "Percent Effect": -25.71}
{"compound": "Cc1cc(C(=O)N2CCCCC2c2nc(C)cs2)[nH]n1", "stereo": "stereo not given", "Percent Effect": 30.26}
{"compound": "CN(C(=O)CN1CCCC1=O)C1CCCN(C2Cc3ccccc3C2)C1", "stereo": "stereo not given", "Percent Effect": -38.21}
{"compound": "O=c1[nH]nc2c(S(=O)(=O)N3CCCCC3)cccn12", "Percent Effect": -5.425}
{"compound": "O=C(c1ccc2c(c1)OCCCO2)N1CCCC(n2cccn2)C1", "stereo": "stereo not given", "Percent Effect": -27.02}
{"compound": "CCOC(=O)CNC(=O)N1CCC(OC)c2ccccc2N(C)C(=O)C1", "stereo": "stereo not given", "Percent Effect": -15.4}
{"compound": "Cc1nccn1C1CCCN(C(=O)c2ccc3cc[nH]c3c2)C1", "stereo": "stereo not given", "Percent Effect": -17.2}
{"compound": "O=C(C1COc2ccccc2C1)N(CCO)Cc1ccccc1", "stereo": "stereo not given", "Percent Effect": -20.74}
{"compound": "[H][C@@]12CN(Cc3ccoc3)C[C@]1([H])OCCN2CC1CCCO1", "stereo": "stereo not given in full", "Percent Effect": -38.73}
{"compound": "COC1CCN(CCNC(=O)C2CCCCC2)CC1", "Percent Effect": -13.31}
{"compound": "O=C(Cc1cccnc1)N1CCCC2(CCN(CC3CCOCC3)C2)C1", "stereo": "stereo not given", "Percent Effect": -29.25}
{"compound": "CCCSc1ncccc1C(=O)NCc1ccc(N(C)C)cc1", "Percent Effect": -49.01}
{"compound": "CCOC(CC)C(=O)NCCC(=O)N1CCN(c2ncccn2)CC1", "stereo": "stereo not given", "Percent Effect": 9.431}
{"compound": "O=C(COc1cccc(F)c1)N1C[C@@H](O)[C@H](N2CCOCC2)C1", "Percent Effect": -8.811}
{"compound": "COc1ccccc1Oc1ncccc1CNC(=O)[C@@H](N)CCO", "Percent Effect": -11.52}
{"compound": "CN(Cc1noc(C2CC2)n1)CC1CCN(CCO)CC1", "Percent Effect": -98.87}
{"compound": "CCC(C)N1C(=O)c2ccc(C(=O)NCCc3c[nH]cn3)cc2C1=O", "stereo": "stereo not given", "Percent Effect": -40.11}
{"compound": "C=C(C)Cn1nc(C)c(CN2CCN(C3CCCCC3)C(=O)C2)c1C", "Percent Effect": -16.6}
{"compound": "Cc1cc(NC(C)c2n[nH]c(C)n2)n2nc(C)c(C)c2n1", "stereo": "stereo not given", "Percent Effect": -65.68}
{"compound": "COCc1nc(CN2CCC3(CCCO3)CCC2=O)no1", "stereo": "stereo not given", "Percent Effect": 45.71}
{"compound": "CCn1cc(CN(C)S(=O)(=O)c2cnn(C)c2)cn1", "Percent Effect": -16.75}
{"compound": "Cn1cc(C2CC(=O)NC23CCN(Cc2ccncc2)CC3)cn1.O=C(O)C(F)(F)F.O=C(O)C(F)(F)F", "stereo": "stereo not given", "Percent Effect": -15.05}
{"compound": "CC(C)c1nc(CC(=O)N2CCCC(n3cncn3)C2)cs1", "stereo": "stereo not given", "Percent Effect": -10.74}
{"compound": "Cn1cc(-c2nc(CN3CCc4c(ncn4C)C3)cs2)cn1", "Percent Effect": -5.755}
{"compound": "[H][C@]12CC[C@]([H])(CN(C(=O)c3ccccn3)C1)N(C(=O)CCC(F)(F)F)C2", "Percent Effect": -39.17}
{"compound": "CCc1oc(C(=O)N2CCCC(c3nnn[nH]3)C2)cc1C", "stereo": "stereo not given", "Percent Effect": -35.02}
{"compound": "CN(C)C(=O)CS(=O)(=O)Cc1cc(Cl)c2c(c1)OCCCO2", "Percent Effect": -42.65}
{"compound": "Cc1cc(C(=O)N2CCC3(C2)CN(c2ccsc2)C(=O)CN3C)[nH]n1.O=C(O)C(F)(F)F", "stereo": "stereo not given", "Percent Effect": -26}
{"compound": "Nc1nc(N)c2c(n1)OC1(COCCN(Cc3nccs3)C1)C2", "stereo": "stereo not given", "Percent Effect": -21.04}
{"compound": "CS(=O)(=O)NCc1cncc2c1CCN(C(=O)c1ccccn1)C2", "Percent Effect": -7.806}
{"compound": "CCC(NC(=O)c1cc(CC(C)C)nn1C)c1cccc(C)n1", "stereo": "stereo not given", "Percent Effect": -187.7}
{"compound": "Cn1cnc2c1CCN(CC(O)c1ccc3c(c1)OCCO3)C2", "stereo": "stereo not given", "Percent Effect": -3.623}
{"compound": "Oc1ccc(N2CCN(Cc3ccc(F)cc3Br)CC2)cc1", "Percent Effect": -38.27}
{"compound": "CCOCC1CN(S(C)(=O)=O)Cc2cnn(C)c21", "stereo": "stereo not given", "Percent Effect": 20.22}
{"compound": "[H][C@@]12CCCO[C@]1([H])[C@H](OCc1cccnc1)CN2C(=O)c1ccncc1", "Percent Effect": -6.121}
{"compound": "CC(=O)N1CCCC1c1cccc(NCc2ccccc2F)n1", "stereo": "stereo not given", "Percent Effect": -16.97}
{"compound": "CCn1nc(C)c2c1cnn2CCNS(=O)(=O)Cc1ccccc1", "Percent Effect": -8.45}
{"compound": "CN(C)S(=O)(=O)N1CC[C@]2(C[C@@H](Oc3cccnc3)CO2)C1.O=C(O)C(F)(F)F", "Percent Effect": 27.5}
{"compound": "COc1cccc(F)c1C(C)NC(=O)NCc1ccnc(C)n1", "stereo": "stereo not given", "Percent Effect": -14.19}
{"compound": "CNS(=O)(=O)c1ccccc1N1CCN(C(C)C(=O)OC)CC1", "stereo": "stereo not given", "Percent Effect": -13.8}
{"compound": "Cn1cccc1C1CCCN1C(=O)NCCCn1cccn1", "stereo": "stereo not given", "Percent Effect": 27.44}
{"compound": "Cc1nc(N2CCCC2)ncc1-c1cc(O)nc(N2CCCC2)n1", "Percent Effect": 64.4}
{"compound": "CCc1nc(C)c(CN2CCN(c3ncnc4scc(C)c34)CC2)[nH]1", "Percent Effect": -63.32}
{"compound": "Cc1nsc(NC(=O)N2CCc3sccc3C2)n1", "Percent Effect": -11.59}

5 of the entries, repeated:

- CCC(NC(=O)c1cc(CC(C)C)nn1C)c1cccc(C)n1 (stereo not given) | -187.7%
- [H][C@]12CC[C@]([H])(CN(C(=O)c3ccccn3)C1)N(C(=O)CCC(F)(F)F)C2 | -39.17%
- CN(Cc1noc(C2CC2)n1)CC1CCN(CCO)CC1 | -98.87%
- [H][C@@]12CN(Cc3ccoc3)C[C@]1([H])OCCN2CC1CCCO1 (stereo not given in full) | -38.73%
- O=C(COc1cccc(F)c1)N1C[C@@H](O)[C@H](N2CCOCC2)C1 | -8.811%